Data from article PMC11021197.
No constants are given. Whether binding was seen depends on the method and setting. In cells and extracts the contact can be indirect. Some binding calls cover weakened binding; strength is not graded here. Sequences can lack the tags named with a protein.

Molecular target: T1, FBXW8–FLAG (human FBXW8, FLAG-tagged) (human) (UniProt Q8N3Y1)
T1 sequence: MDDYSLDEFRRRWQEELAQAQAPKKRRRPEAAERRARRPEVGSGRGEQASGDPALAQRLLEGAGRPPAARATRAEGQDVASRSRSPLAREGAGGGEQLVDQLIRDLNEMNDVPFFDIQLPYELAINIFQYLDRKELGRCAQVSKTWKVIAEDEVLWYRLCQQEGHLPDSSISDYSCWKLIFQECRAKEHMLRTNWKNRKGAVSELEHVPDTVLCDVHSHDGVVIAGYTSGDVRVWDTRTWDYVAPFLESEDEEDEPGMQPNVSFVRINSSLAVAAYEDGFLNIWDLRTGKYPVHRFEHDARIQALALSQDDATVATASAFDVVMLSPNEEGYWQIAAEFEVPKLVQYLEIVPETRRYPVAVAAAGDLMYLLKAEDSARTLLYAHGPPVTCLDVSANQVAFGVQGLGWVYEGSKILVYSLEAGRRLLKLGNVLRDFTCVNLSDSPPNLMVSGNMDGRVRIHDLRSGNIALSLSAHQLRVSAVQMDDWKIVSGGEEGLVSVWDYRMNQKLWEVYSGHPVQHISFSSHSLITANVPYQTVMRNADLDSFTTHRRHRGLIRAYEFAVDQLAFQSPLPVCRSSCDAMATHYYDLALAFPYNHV
Assay: co-IP; anti-FLAG beads added to HEK293T whole-cell extract 48 h after expressing ATGL–FLAG or FBXW8–FLAG; RIPA buffer (50 mM Tris–HCl pH 7.4, 150 mM NaCl, 2 mM EDTA, 1.0% Triton X-100); overnight at 4 °C; six washes; immunoblot

B1: ATGL found with FBXW8–FLAG in HEK293T whole-cell extract (enzyme, UniProt Q96AD5 1-504)
chain: MFPREKTWNISFAGCGFLGVYYVGVASCLREHAPFLVANATHIYGASAGALTATALVTGVCLGEAGAKFIEVSKEARKRFLGPLHPSFNLVKIIRSFLLKVLPADSHEHASGRLGISLTRVSDGENVIISHFNSKDELIQANVCSGFIPVYCGLIPPSLQGVRYVDGGISDNLPLYELKNTITVSPFSGESDICPQDSSTNIHELRVTNTSIQFNLRNLYRLSKALFPPEPLVLREMCKQGYRDGLRFLQRNGLLNRPNPLLALPPARPHGPEDKDQAVESAQAEDYSQLPGEDHILEHLPARLNEALLEACVEPTDLLTTLSNMLPVRLATAMMVPYTLPLESALSFTIRLLEWLPDVPEDIRWMKEQTGSICQYLVMRAKRKLGRHLPSRLPEQVELRRVQSLPSVPLSCAAYREALPGWMRNNLSLGDALAKWEECQRQLLLGLFCTNVAFPPEALRMRAPADPAPAPADPASPQHQLAGPAPLLSTPAPEARPVIGALGL
B1 was tested, and the binding was “binds”.
